Reference: PubChem BioAssay AID2685 (National Center for Advancing Translational Sciences (NCATS), 2010)
The list shows a part of the results. Shown are side measurements of this screen, not its main read-out; they come without a call. Compounds called inactive in the main read-out are mostly missing here. Potencies come from curve fits of mixed quality, noted in brackets.

Experiment: qHTS Assay for Lipid Storage Modulators in Drosophila S3 Cells;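 as to cell number change: cells counted by Cell Tracker Red CMTPX staining in the red channel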
Details: BODIPY lipid droplet fluorescence, 18-24 h; for cell number change: measured here: cell count max response, cells fed with added oleic acid
Summary of the method: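 Drosophila S3 cells loaded with oleic acid (400 uM, as added) and compounds at several concentrations; lipid droplets imaged by 488-nm laser-scanning cytometry, 500–530 nm intensity and object ratio to cell channel. Percent activity normalized to 20 uM Triacsin C.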

[1] = measured here: lipid fluorescence (Fed channel) AC50, cells fed with added oleic acid
[2] = measured here: cell number channel AC50, cells fed with added oleic acid

Row | SMILES | cell number change [%] | AC50 [1] | AC50 [2]
1 | COc1ccc(S(=O)(=O)N2CCC(C(=O)NCc3ccncc3)CC2)cc1C | -7.89 | – | –
2 | Cc1cccc(-c2nnc(SCC#N)n2Cc2ccccc2)c1 | – | 6.51 µM [rising, single point] | –
3 | O=C(Cc1ccccc1)N1CCC(c2ccccc2)C1 (configuration not stated) | -34.1 | 0.146 µM [falling, full curve] | 0.13 µM [falling, full curve]
4 | Cn1ccnc1SCC(=O)Nc1ccc(Oc2ccccc2)cc1 | -19.1 | – | –
5 | Nc1ncnc2c1ncn2[C@@H]1O[C@H](COS(=O)(=O)O)[C@@H](O)[C@H]1O | -3.25 | 20.6 µM [rising, single point] | –
6 | COc1ccc2c(=O)c(C(=O)NCc3ccccc3)c[nH]c2c1 | -21.3 | 25.9 µM [falling, single point] | –
7 | Cc1ccc(OCC(=O)NNC(=O)c2ccccc2OCc2c(C)noc2C)cc1 | – | 2.31 µM [rising, partial curve] | –
8 | N#CCCN(C(=O)COC(=O)CNS(=O)(=O)c1ccc2ccccc2c1)c1ccccc1 | -7.76 | 0.00731 µM [rising, full curve, poor fit] | –
9 | CC1CCC(N2CCN(C(=O)c3ccccc3F)CC2)CC1 (configuration not stated) | -1.01 | 4.61 µM [rising, full curve, poor fit] | –
10 | CCOC(=O)c1c(-c2ccccc2)oc2ccc(OCC(=O)NNC(=O)CCCC(=O)O)cc12 | 8.52 | 0.00517 µM [rising, full curve, poor fit] | –
11 | Cc1nc2ccc([N+](=O)[O-])cc2c(=O)n1Cc1cccc(F)c1 | -10.8 | – | –
12 | CC(CCc1ccccc1)NC(=O)C(Cc1ccccc1)NC(N)=O (configuration not stated) | 4.76 | 6.51 µM [rising, single point] | –
13 | COc1ccc(CCNC(=O)CCc2nc3ccccc3[nH]2)cc1OC | 37.2 | – | 8.2 µM [rising, partial curve, poor fit]
14 | O=C(NC1CCCC1)C(c1ccc(Cl)cc1)N1CCOCC1 (configuration not stated) | 18.5 | – | –
15 | CC(OC(=O)CCCN=C1NS(=O)(=O)c2ccccc21)C(=O)NC1CCCCC1C (configuration not stated) | 9.37 | 29.1 µM [falling, single point] | –
16 | CCCCN(CC)CCCNC(=O)C1c2ccccc2C(=O)N(C)C1c1cn(C)c2ccccc12 (configuration not stated) | -124 | 29.1 µM [falling, partial curve] | 25.9 µM [falling, partial curve]
17 | C[C@@]12CCC[C@@](C)(C(=O)O)C1CC[C@@]13C[C@@H](NCc4ccccc4)[C@@](C)(CCC12)C3 (some centres not stated) | 18.8 | 16.4 µM [falling, single point] | –
18 | CCOC(=O)C1(CCCc2ccccc2)CCN(C(=O)CSC)CC1 | -30.1 | 4.61 µM [falling, single point] | 16.4 µM [falling, partial curve, poor fit]
19 | O=C1C2C3C=CC(C3)C2C(=O)N1c1ccc2ccccc2c1 (configuration not stated) | -4.39 | 1.84 µM [falling, partial curve] | –
20 | O=C(COC(=O)c1ccc2c(c1)OCCO2)NC1CCCCC1 | -17.4 | – | –

Excerpt, compounds 3–5
Row | SMILES | cell number change [%] | AC50 [1] | AC50 [2]
3 | O=C(Cc1ccccc1)N1CCC(c2ccccc2)C1 (configuration not stated) | -34.1 | 0.146 µM [falling, full curve] | 0.13 µM [falling, full curve]
4 | Cn1ccnc1SCC(=O)Nc1ccc(Oc2ccccc2)cc1 | -19.1 | – | –
5 | Nc1ncnc2c1ncn2[C@@H]1O[C@H](COS(=O)(=O)O)[C@@H](O)[C@H]1O | -3.25 | 20.6 µM [rising, single point] | –

More compounds:

Row | SMILES | cell number change [%] | AC50 [1] | AC50 [2]
21 | CCCCc1nc2cc(C(=O)N3CCCC(OCCC)C3)ccc2o1 (configuration not stated) | -10.5 | – | –
22 | Nn1c(=O)c2ccccc2n2c(SCc3ccc(C(F)(F)F)cc3)nnc12 | 11.6 | 29.1 µM [rising, single point] | –
23 | Cc1ccc(C(=O)N(c2ccccc2)C2CC(C)N(C(=O)c3ccco3)c3ccccc32)cc1 (configuration not stated) | 59.1 | – | 14.6 µM [rising, partial curve]
24 | CC(C)(C)C(=O)N1CCC[C@@]1(CO)C(=O)O | 0.431 | – | 3.26 µM [falling, single point]
25 | O=C(CSc1nc(-c2cccs2)cc(C(F)(F)F)n1)NCc1ccco1 | -31 | 9.2 µM [falling, partial curve] | 5.17 µM [falling, full curve, poor fit]
26 | CCCNC(=O)C(Cc1ccc(Cl)cc1)NC(=O)c1ccc(C#N)cc1 (configuration not stated) | 16.3 | – | 0.00411 µM [falling, full curve, poor fit]
27 | CC1=C(C(=O)OC(C)C)C(c2cccs2)n2ncnc2N1 (configuration not stated) | – | 0.0184 µM [rising, full curve, poor fit] | –
28 | CC(=O)c1cccc(N=C2NC(=O)CS2)c1 | – | 6.51 µM [falling, single point] | –
29 | CC(=O)N1CCN(C(=O)c2cccc(S(=O)(=O)N3CCOCC3)c2)CC1 | -6.23 | 32.6 µM [rising, single point] | –
30 | Cc1nnc(SCC(=O)NC2CCCC2)n1-c1ccccc1 | -8.1 | 0.651 µM [falling, partial curve, poor fit] | 2.59 µM [falling, partial curve]
31 | CCCOc1ccc(-c2nc(N3CCN(CC)CC3)c3ccccc3n2)cc1 | 18.1 | – | –
32 | COc1ccc(CNC(=O)c2cccc(S(=O)(=O)N3CCN(c4ccc(F)cc4)CC3)c2)cc1 | 24.1 | – | –
33 | Cc1[nH]c2ccccc2c1C(=O)COC(=O)c1ccc([N+](=O)[O-])s1 | -12.4 | – | –
34 | COc1ccc(N(CC(=O)NCc2ccccc2)S(=O)(=O)c2c(C)n[nH]c2C)cc1 | 24 | – | 0.00411 µM [rising, full curve, poor fit]
35 | COc1cc(/C=N/NC(=O)CCN2CCN(c3ccccc3)CC2)cc(OC)c1OC | -0.418 | 4.11 µM [falling, partial curve] | –
36 | CC1CCN(CCCCOc2ccc(C(=O)c3ccccc3)cc2)CC1 | -0.3 | 0.082 µM [rising, full curve, poor fit] | –
37 | O=C(C1CCC(CNc2nc(=S)[nH]c3ccccc23)CC1)N1CCN(c2ccc(F)cc2)CC1 (configuration not stated) | 35.9 | 0.103 µM [rising, full curve, poor fit] | –
38 | CN(C)/C=C/C(=O)c1ccncc1 | -24.7 | 2.91 µM [falling, full curve] | 3.26 µM [falling, full curve, poor fit]
39 | Cc1cc(OCC(=O)N2CCCC2)ccc1Cl | -11.9 | – | –
40 | COc1ccc(-n2c(N)cc(=O)nc2SCC(=O)N2CCN(c3ccccc3)CC2)cc1 | -0.495 | 6.51 µM [falling, partial curve, poor fit] | –
